# Out of some 52,000 sequences screened, about 210 (0.4%) were called active.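 Rule for the calls: active = gene whose silencing raises cell survival under the drug, median off-target-corrected z-score across its silencing RNAs 2 or more; inactive = the rest.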 The list shows a part of the results.
# Assay: Resistance to Poly (ADP-Ribose) Polymerase inhibitor: Gene Identification via Genome-wide siRNA Screen
# Details: mouse BRCA2 R2336H ES cells, olaparib, CellTiter-Glo viability; hits give high values
# Summary of the method: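 Mouse BRCA2 R2336H ES cells were reverse-transfected with siRNA (20 nM final), treated at 48 h with 500 nM olaparib, and read by CellTiter-Glo after 72 h. Scores: MAD-based z per siRNA, median per gene, seed off-target correction.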
row,Sequence,z-score
1,GGAUAUUCGUUACCAUUAUTT against BC024479,inactive: 0.261
2,CCCAUUGUAUUCAUCAGAGTT against LOC436240,inactive: 0.0614
3,CCUUUUUUCAUGUUAAUGGTT against Lmod1,inactive: 1.27
4,GGGUAAUUGAAUGACUGAGTT against 8430432M10Rik,inactive: -1.41
5,GGCACAAGAACCAUUUCUGTT against Nfe2l3,inactive: -1.28
6,GGAAUAGAAGCUUUCACUGTT against A630023P12Rik,inactive: -0.511
7,CCCUUAGUGAACUUCUGUUTT against Tubb2,inactive: 0.142
8,GGACAAGAAAAAGGAUUAGTT against Clptm1,inactive: 1.35
9,GGUUCUUUUUGCCACAGCCTT against 5730472N09Rik,inactive: -0.112
10,GGUGAAGAGACUGGAGAACTT against Sdpr,inactive: -2.88
11,GGCGAGAAACCAUACCUGUTT against Glis1,inactive: 0.431
12,GCAUAUGAACCUAAAACCCTT against D130060H24Rik,inactive: 0.0762
13,GGUGUGACCAUCAAGCAUGTT against Nek8,inactive: -0.308
14,GGAUGUCAAUGAGUUUGCATT against Clstn2,inactive: -0.0561
15,CGUAAUCAGUGCAGUAAACTT against A130081B01,inactive: -0.649
16,GGUAUUCUCUAAGAAGGAGTT against Ccbl1,inactive: -0.635
17,CGAUGGAAGCACUUAUUUATT against Lep,inactive: 1.38
18,GGAGAGAAAGAACUGGAAATT against A130092J06Rik,inactive: 0.997
19,CCGACAAAUAAAGGCUUUATT against Ddx52,inactive: -0.0103
20,GGACUUCACCUACAGCAAGTT against Nr1h2,inactive: 0.462
21,GCGGGAGCUACACACGAUUTT against Dolpp1,inactive: -0.937
22,GGACCAGAGGUUAAUUUAUTT against Herpud1,inactive: 1.4
23,CGUGACUGCACUUUAAGUATT against Pirb,inactive: 0.74
24,GCUAGAAAUAAGGCUGCACTT against BC026778,inactive: -1.54
25,GGCUGUAAAACCCAAUCUATT against Top3a,inactive: 1.42
26,GCCAAUGCCCUUGUGCAAATT against Olfr344,inactive: 0.401

# A run of entries from further up, for reference:
row,Sequence,z-score
19,CCGACAAAUAAAGGCUUUATT against Ddx52,inactive: -0.0103
20,GGACUUCACCUACAGCAAGTT against Nr1h2,inactive: 0.462
21,GCGGGAGCUACACACGAUUTT against Dolpp1,inactive: -0.937
22,GGACCAGAGGUUAAUUUAUTT against Herpud1,inactive: 1.4

# Next part

row,Sequence,z-score
1,GCCAGGUACAUUCUUUGUGTT against Tnfrsf7,inactive: -0.192
2,GGCGUGGCAACAUGGACAATT against 6530411B15Rik,inactive: -0.18
3,GCCCGUAGAUAUGAUCUUCTT against V1rk1,inactive: 0.667
4,GGAAGCUGAUGAAUAUGUUTT against Acly,inactive: 0.0318
5,GGAAGACUUGAUAGAUGAATT against C4,inactive: 0.0169
6,GCUUAACGGGAGUUAUGAGTT against Capn9,inactive: 1.72
7,GAAGUCAUGGUUCCUACCATT against Clcn1,inactive: 0.425
8,GGACUGAACCGUUUUAAAGTT against Fmo3,inactive: -0.243
9,GGGUUGAAUAUGUAGCUUGTT against Dsg1a,inactive: -0.497
10,GGCAAGGUAUCCUCACUUGTT against Arpp19,inactive: -1.39
11,CGAGGCACCAGAUUUGUAATT against 4631423F02Rik,inactive: -0.439
12,CCUGUACAAUUGACCUACATT against Serpinb1c,inactive: -1.19
13,GGAUAUACCAUCAAUGUACTT against Hdac6,inactive: 1.07
14,GGGCUAUGAGGUAACCACUTT against Ahcy,inactive: -0.576
15,GCGGCUUACUCAAAUCAAGTT against D2Ertd485e,inactive: 0.123
16,CGACAAAAUUACCAGGUCATT against Hmx3,inactive: 0.863
17,GCAUGGCACUUUUUUAUACTT against Olfr1365,inactive: 0.801
18,GCUAUUUUUAUAAGGGCCATT against Aps,inactive: -0.213
19,GGGCACACGUACCAACUAUTT against 2210008I11Rik,inactive: -2.16
20,CCGGGUGCUGUUCUAUAAGTT against Pecam1,inactive: 0.0651
21,GGAACUCAGAGUGUACGCATT against E030006K04Rik,inactive: -0.33
22,GGACUAUUCUACCAAGUACTT against Txnl4,inactive: -2.12
23,GGAGAUGAUACAUAAUCUATT against Psmd12,inactive: -1.18
24,GCAGAGGCUCGUCCAUAUATT against Dnpep,inactive: 0.44
25,GGGAACCUUACUGUGUUAUTT against Gpr85,inactive: -0.237
26,GGACGUGUGGCUGUUGACATT against Sdc1,inactive: -2.23

row,Sequence,z-score
1,CGCGAGUUUUUCUUUAAUGTT against Hoxd11,inactive: 0.328
2,GGUCAACAUCACCUUCAAUTT against Scarb1,inactive: -1.15
3,GGCAUCUCUGAGUUACAUUTT against Ssfa1,inactive: -0.287
4,GGCCUGCUAUCGUUCAGAATT against Mkln1,inactive: -0.516
5,GGAAUCUCGGAGGAAAACUTT against Hyou1,inactive: 0.534
6,GCCUGUGGGAACUGACUAATT against 4931406H21Rik,inactive: -2.56
7,GGUCCUGAAGAUACCAUCUTT against Olfr1377,inactive: -0.98
8,GGACAGUAGUUCUUUAUCUTT against 1200011I18Rik,inactive: -0.435
9,CGGCUGAUGCUUGACCUAATT against BC018242,inactive: 0.885
10,GCUAUAGACAAGGAGAGUATT against Galnt6,inactive: -1.15
11,GCCUUUUAAUAGAUGUCAUTT against 1110059P08Rik,inactive: -0.636
12,GGGCUAUGAGAAGUUGCUATT against AU067744,inactive: 0.495
13,GGUGUUGAGUGCACUACUGTT against LOC380969,inactive: 0.929
14,GGCAAAUUCUACUACAAGATT against Pms2,inactive: 0.181
15,GGAUGGAACAGACUAUAGUTT against 5330437I02Rik,inactive: 1.14
16,CCCACCAGCGGAAUUUGAUTT against C330005M16Rik,inactive: -0.8
17,GGCAAGUGCCCAAGUUUGUTT against Ifi35,inactive: -1.91
18,GCUUCAACAGUAAUAAUCGTT against 5930437A14Rik,inactive: 0.434
19,GGAGAGAAAGAAUUUCAUCTT against Chordc1,inactive: -0.00737
20,CCUAAUCUGGUAUACCAGATT against Slc7a1,inactive: -0.919
21,GCCAUCUUCGGUCAACUCUTT against Olfr969,inactive: -1.01
22,GGAAGAUCAUAGCAAAAGGTT against Casp3,inactive: -0.171
23,GGCAACUGUUGUAAAUCAATT against 2810471M23Rik,inactive: 0.58
24,GGCUGGAGAUCUCUCAAAGTT against 6330571D19Rik,inactive: 0.913
25,GGAGAAGAGCAUAAAUACATT against 2410137M14Rik,inactive: -2.01
26,GGAUACAUGUGGUGCCAAUTT against Banf1,inactive: -2.45

row,Sequence,z-score
1,GGUGUUAAGACUCAGCUCATT against A930021H16Rik,inactive: -0.149
2,GCUCAUGGGUAUGAUCAAUTT against Sox5,inactive: -1.06
3,GGCCAAUCUAUGCUGUCCCTT against 3110001H15Rik,inactive: 0.147
4,GGCAAAAUCGUGAAAAUUCTT against Vwf,inactive: 0.814
5,GCUGCACGGUGAGUUUAAATT against Gpm6b,inactive: 1.53
6,GGGCUUCACCAUUAUCAUUTT against Ercc2,inactive: -1.99
7,CCCUCUCCAAUAUUCUUUATT against Olfr1116,inactive: 0.139
8,CCUCGGAUUGUUCAGACCUTT against Plxna4,inactive: -0.466
9,CCUGAUAAUGAAUAACUCGTT against Stard3nl,inactive: -0.0653
10,GGCCUGGUAAAGUUAGUAATT against Wdr20,inactive: -0.345
11,CGAUGCAACUGGAAAACUCTT against Riok1,inactive: -0.45
12,GGGAAAGAUCCAGAACCAGTT against D4Wsu53e,inactive: 0.157
13,GGAGAUCCGUUCAAGGGUUTT against Olfr557,inactive: -0.789
14,GGGCUACUUCCUGACUAAATT against Ube2s,inactive: -1.46
15,CGUGAAAAAGUUAGCAAGUTT against 2610024N01Rik,inactive: 0.72
16,GCCGGAUUGAGAUCUCUAUTT against 1500015L24Rik,inactive: -1.05
17,CCUAAUCAACAACUUGGAGTT against Ugcg,inactive: 0.431
18,GGAGACAUUCCAAAUGAGATT against 2810407K09Rik,inactive: -0.507
19,GCCCAGUACUCCGCUUACATT against Bhlhb4,inactive: -0.214
20,GGACCAGUUAGUGAAGUGCTT against 0610033I05Rik,inactive: 1.51
21,GGCAGUUAGACUGGUGUACTT against Foxa3,inactive: 0.0935
22,GGUCAUUCACAAGUCCUUUTT against Serpinb6b,inactive: -0.165
23,GAUACAUCAACACACUGACTT against Ppy,inactive: 0.55
24,GGUUCUUCAUACAAAUUACTT against Edg8,inactive: 1.1
25,CCUGUAUGGGCAUGAGUUUTT against Ttc8,inactive: -0.533

# Reference: PubChem BioAssay AID1347423 (Functional Genomics Laboratory (NCATS/FGL), 2020)
